Measurements as given in patent US20240294644A1.
Results are given in words; binding and its absence hold for the method and conditions named. Some results given as binding are weak or reduced against the parent protein; the word gives no strength. Values belong to the binder of their own block, whether it stands above or below them.

How the values were obtained:
[1] = target: cynomolgus monkey VTCN1 expressed on 293 cells (cynomolgus monkey); experiment: flow cytometry on 293-VTCN1 (monkey) cells
[2] = target: T1, mouse VTCN1 expressed on 293 cells (mouse) (UniProt Q7TSP5); experiment: flow cytometry, titration 0.03-100 nM on 293-mouse VTCN1 cells
T1 sequence (looked up): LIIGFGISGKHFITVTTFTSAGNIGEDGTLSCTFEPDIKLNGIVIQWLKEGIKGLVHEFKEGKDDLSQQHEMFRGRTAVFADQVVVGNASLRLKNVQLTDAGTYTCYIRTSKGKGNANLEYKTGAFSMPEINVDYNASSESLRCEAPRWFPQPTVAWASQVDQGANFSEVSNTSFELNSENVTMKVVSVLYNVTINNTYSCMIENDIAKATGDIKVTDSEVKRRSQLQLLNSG

[3] = target: T2, VTCN1 IgV domain only construct expressed on 293 cells (human) (UniProt Q7Z7D3); experiment: FACS on 293-VTCN1-IgV domain expressing cells
T2 sequence: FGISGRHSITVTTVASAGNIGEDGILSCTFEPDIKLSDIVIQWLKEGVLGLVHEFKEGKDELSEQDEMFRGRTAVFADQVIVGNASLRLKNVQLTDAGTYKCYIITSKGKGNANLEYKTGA

[4] = target: human VTCN1 expressed on cells (293-VTCN1 cells; SKBR3, MX-1 and ZR-75-1 cells that express it naturally) (human) (UniProt Q7Z7D3); experiment: flow cytometry of serially diluted antibody on 293-humanVTCN1 cells, dye-labelled secondary antibody, MFI
[5] = target: T1, mouse VTCN1 expressed on 293 cells (mouse); experiment: FACS of serially diluted antibodies on 293 mouseVTCN1 cells
[6] = target: human VTCN1 expressed on cells (293-VTCN1 cells; SKBR3, MX-1 and ZR-75-1 cells that express it naturally) (human) (UniProt Q7Z7D3); experiment: FACS of serially diluted antibodies on 293-humanVTCN1 and SKBR3 cells
[7] = target: cynomolgus monkey VTCN1 expressed on 293 cells (cynomolgus monkey); experiment: FACS of serially diluted antibodies on 293-cynoVTCN1 cells
[8] = target: human VTCN1 expressed on cells (293-VTCN1 cells; SKBR3, MX-1 and ZR-75-1 cells that express it naturally) (human) (UniProt Q7Z7D3); experiment: flow cytometry of serially diluted antibody on SKBR3 cells (natural VTCN1), dye-labelled secondary antibody, MFI
[9] = target: T1, mouse VTCN1 expressed on 293 cells (mouse); experiment: flow cytometry of serially diluted antibody on 293-mouseVTCN1 cells, dye-labelled secondary antibody, MFI
[10] = target: cynomolgus monkey VTCN1 expressed on 293 cells (cynomolgus monkey); experiment: flow cytometry of serially diluted antibody on 293-cynoVTCN1 cells, dye-labelled secondary antibody, MFI
[11] = target: human VTCN1 expressed on cells (293-VTCN1 cells; SKBR3, MX-1 and ZR-75-1 cells that express it naturally) (human) (UniProt Q7Z7D3); experiment: flow cytometry, titration 0.03-100 nM on 293-human VTCN1 and SKBR3 cells
[12] = target: cynomolgus monkey VTCN1 expressed on 293 cells (cynomolgus monkey); experiment: flow cytometry, titration 0.03-100 nM on 293-cynoVTCN1 cells

- binding [1]: binds
B1: 7C8 (antibody, V domains shown)
VH: QVQLQESGPGLVKPSETLSLTCAVSGYSISSGYYWGWIRQPPGKGLEWIGSIYHSGTTYYNPSLKSRVTISVDTSKNQFSLKLNSVTAADTAVYYCATYSSGWYFYFDYWGQGTLVTVSS
VL: DIQLTQSPSFLSASVGDRVTITCRASQGISSYLAWYQQKPGKAPKLLIYVASTLQSGVPSRFSGSGSGTEFTLTISSLQPEDFATYYCQQLNSYPITFGQGTRLEIK

- binding [2]: binds
- binding [3]: binds
- binding [4]: binds
- binding [5]: binds
- binding [6]: binds
- binding [7]: binds
- binding [8]: binds
- binding [9]: binds
- binding [10]: binds
- binding [11]: binds
- binding [12]: binds
B2: 12B5_44B1 (antibody, V domains shown)
VH: QVQLVQSGAEVKKPGSSMKVSCKASGDTFSSYAISWVRQAPGQGLEWMAGIIPVFGTAHNAQKFQGRVTITADKSTSTAYMELSSLRSEDTAVYYCTRGGPYFDYWGQGTLVTVSS
VL: EIVMTQSPATLSVSPGERAALSCRASQSVSSNLAWYQQKPGQAPRLLIYGVSTRATGIPDRFNGSGSGTEFTLTISSLQSEDFGAYYCQQYKKWPFIFGPGTKLEIK

- binding [10]: binds
B3: hu6D9_57A5 (antibody, V domains shown)
VH: QVQLVESGGGVVQPGRSLRLSCAVSGFSLTSYGVQWVRQAPGKGLEWLAVIWSSGSTDYNAAFLSRLTISKDNSKNTVYFQMNSLRAEDTAVYYCARDVTTIVEGFAHWGQGTLVTVSS
VL: DIQMTQSPSSLSASVGDRVTITCKASEKVGTYVSWYQQKPGKAPKLLIYGASNRYTGVPSRFSGSGSGTDFTLTISSLQPEDFATYYCGQTYSYPFTFGQGTKLEIK

- binding [3]: binds
- binding [7]: binds
- binding [10]: binds
- binding [12]: binds
B4: 4C7_63A1 (antibody, V domains shown)
VH: QVQLQESGPGLVKPSGTLSLTCAVSGGSISSSNWWSWVRQPPGKGLEAIGEIYHSGNTNYNPSLKSRVTISVDKSKNQFSLKLSSVTAADTAIYYCARDGYSSGWYWGYFDYWGQGTLVTVSS
VL: EIVMTQSPATLSVSPGERATLSCRASQSVNSNLAWYQQKPGQAPWLLIYGASTRATGIPARFSGSGSGTEFTLTISSLQSEDFAVYYCQQYNHWPYTFGQGTKLEIK
